Experiment: general procedure: solution-phase peptide synthesis; HATU
[1] = coupling step, HPLC (Protocol A)
[2] = late stage modification step, HPLC (Protocol A)

With “1,2-dimethyl-D-prolyl-N-[(3R,4S,5S)-1-{(2S)-2-[(1R,2R)-2-carboxy-1-methoxypropyl]pyrrolidin-1-yl}-3-methoxy-5-methyl-1-oxoheptan-4-yl]-N-methyl-L-valinamide, trifluoroacetic acid salt” the step yield (coupling step) was 57.5% and the “final HPLC purity” value (coupling step, HPLC Protocol X) was 98%.
“N-(tert-butoxycarbonyl)-N,2-dimethylalanyl-N-[(3R,4S,5S)-3-methoxy-1-{(2S)-2-[(1R,2R)-1-methoxy-2-methyl-3-oxo-3-{[(1S)-2-phenyl-1-(1,3-thiazol-2-yl)ethyl]amino}propyl]pyrrolidin-1-yl}-5-methyl-1-oxoheptan-4-yl]-N-methyl-L-valinamide” showed a step yield (coupling step) of 50%.
“N-[(9H-fluoren-9-ylmethoxy)carbonyl]-2-methylalanyl-N-{(3R,4S,5S)-1-[(2S)-2-{(3R,4R,7S)-7-benzyl-4-methyl-18-[(4S,5R)-5-methyl-2-oxoimidazolidin-4-yl}-5,8,13-trioxo-2-oxa-6,9,12-triazaoctadecan-3-yl}pyrrolidin-1-yl]-3-methoxy-5-methyl-1-oxoheptan-4-yl]-N-methyl-L-valinamide” showed a step yield (coupling step) of 27%.
Work on “L-isovalyl-N-{(1S,2R)-4-{(2S)-2-[(1R,2R)-3-{[(1S)-1-benzyl-2-methoxy-2-oxoethyl]amino}-1-methoxy-2-methyl-3-oxopropyl]pyrrolidin-1-yl}-2-methoxy-1-[(1S)-1-methylpropyl]-4-oxobutyl}-N-methyl-L-valinamide” yielded a step yield (coupling step) of 35%.
“2-methylalanyl-N-[(3R,4S,5S)-1-{(2S)-2-[(1R,2R)-3-{[1-(bicyclo[4.2.0]octa-1,3,5-trien-7-yl)-2-methoxy-2-oxoethyl]amino}-1-methoxy-2-methyl-3-oxopropyl]pyrrolidin-1-yl}-3-methoxy-5-methyl-1-oxoheptan-4-yl]-N-methyl-L-valinamide” showed a step yield (late stage modification step) of 73%.
In the case of “N-[(9H-fluoren-9-ylmethoxy)carbonyl]-2-methylalanyl-N-[(3R,4S,5S)-1-{(2S)-2-[(1R,2R)-3-{[2-(cyclohepta-2,4,6-trien-1-yl)ethyl]amino}-1-methoxy-2-methyl-3-oxopropyl]pyrrolidin-1-yl}-3-methoxy-5-methyl-1-oxoheptan-4-yl]-N-methyl-L-valinamide”, the step yield (coupling step) is reported as 65%.
For “1,2-dimethyl-L-prolyl-N-[(3R,4S,5S)-3-methoxy-1-{(2S)-2-[(1R,2R)-1-methoxy-3-{[(2S)-1-methoxy-1-oxo-3-(1,2,3,4-tetrahydroquinolin-6-yl)propan-2-yl]amino}-2-methyl-3-oxopropyl]pyrrolidin-1-yl}-5-methyl-1-oxoheptan-4-yl]-N-methyl-L-valinamide”, the step yield (coupling step) was 44% and the “final HPLC purity” value [1] was 100%.
For “N-methyl-L-valyl-N-[(3R,4S,5S)-3-methoxy-1-{(2S)-2-[(1R,2R)-1-methoxy-3-{[(2S)-1-methoxy-1-oxo-3-phenylpropan-2-yl]amino}-2-methyl-3-thioxopropyl]pyrrolidin-1-yl}-5-methyl-1-oxoheptan-4-yl]-N-methyl-L-valinamide”, the step yield (late stage modification step) was 80% and the “final HPLC purity” value [2] was >95%.
Work on “N-[(9H-fluoren-9-ylmethoxy)carbonyl]-2-methylalanyl-N-[(3R,4S,5S)-1-{(2S)-2-[(1R,2R)-2-carboxy-1-methoxypropyl]pyrrolidin-1-yl}-3-methoxy-5-methyl-1-oxoheptan-4-yl]-N-methyl-L-valinamide” yielded a step yield (coupling step, run 1) of 83% and a step yield (coupling step, run 2) of 92%.
In the case of “1,2-dimethyl-D-prolyl-N-{(1S,2R)-4-{(2S)-2-[(1R,2R)-3-{[(1S)-1-carboxy-2-phenylethyl]amino}-1-methoxy-2-methyl-3-oxopropyl]pyrrolidin-1-yl}-2-methoxy-1-[(1S)-1-methylpropyl]-4-oxobutyl}-N-methyl-L-valinamide”, the step yield (coupling step) is reported as 78% and the “final HPLC purity” value [1] is reported as >98%.
With “N-[(9H-fluoren-9-ylmethoxy)carbonyl]-N,2-dimethylalanyl-N-[(3R,4S,5S)-1-{(2S)-2-[(1R,2R)-2-carboxy-1-methoxypropyl]pyrrolidin-1-yl}-3-methoxy-5-methyl-1-oxoheptan-4-yl]-N-methyl-L-valinamide” the step yield (coupling step) was 92%.
For “1,2-dimethyl-L-prolyl-N-{(1S,2R)-4-{(2S)-2-[(1R,2R)-3-{[(1S)-1-carboxy-2-phenylethyl]amino}-1-methoxy-2-methyl-3-oxopropyl]pyrrolidin-1-yl}-2-methoxy-1-[(1S)-1-methylpropyl]-4-oxobutyl}-N-methyl-L-valinamide”, the step yield (coupling step) was 69% and the “final HPLC purity” value [1] was >98%.
In the case of “methyl N-{(2R,3R)-3-[(2S)-1-{(3R,4S,5S)-4-[{N-[(9H-fluoren-9-ylmethoxy)carbonyl]-L-valyl}(methyl)amino]-3-methoxy-5-methylheptanoyl}pyrrolidin-2-yl]-3-methoxy-2-methylpropanoyl}-L-phenylalaninate”, the step yield (coupling step) is reported as 62% and the “final HPLC purity” value [1] is reported as >97%.
In the case of “N,2-dimethylalanyl-N-[(3R,4S,5S)-1-{(2S)-2-[(1R,2R)-3-{[(1S)-1-carboxy-2-phenylethyl]amino}-1-methoxy-2-methyl-3-thioxopropyl]pyrrolidin-1-yl}-3-methoxy-5-methyl-1-oxoheptan-4-yl]-N-methyl-L-valinamide, trifluoroacetic acid salt”, the “final HPLC purity” value (late stage modification step, HPLC Protocol A at 45° C, trifluoroacetic acid salt) is reported as “purity >96%” and the step yield (late stage modification step, trifluoroacetic acid salt) is reported as 58%.
Work on “methyl N-{(2R,3R)-3-[(2S)-1-{(3R,4S,5S)-4-[{N-[2,2-dimethyl-3-(methylamino)propanoyl]-L-valyl}(methyl)amino]-3-methoxy-5-methylheptanoyl}pyrrolidin-2-yl]-3-methoxy-2-methylpropanoyl}-L-phenylalaninate, trifluoroacetic acid salt” yielded a step yield (coupling step, TFA salt) of 17%.
In the case of “2-methylalanyl-N-[(3R,4S,5S)-3-methoxy-1-{(2S)-2-[(1R,2R)-1-methoxy-2-methyl-3-oxo-3-{[(1S)-2-phenyl-1-(1,3-thiazol-2-yl)ethyl]amino}propyl]pyrrolidin-1-yl}-5-methyl-1-oxoheptan-4-yl]-N-methyl-L-valinamide”, the step yield (late stage modification step) is reported as 75% and the “final HPLC purity” value [2] is reported as >97%.
For “2-methyl-L-prolyl-N-{(1S,2R)-4-{(2S)-2-[(1R,2R)-3-{[(1S)-1-benzyl-2-methoxy-2-oxoethyl]amino}-1-methoxy-2-methyl-3-oxopropyl]pyrrolidin-1-yl}-2-methoxy-1-[(1S)-1-methylpropyl]-4-oxobutyl}-N-methyl-L-valinamide”, the step yield (late stage modification step) was 89% and the “final HPLC purity” value [2] was >91%.
For “1,2-dimethyl-D-prolyl-N-[(3R,4S,5S)-1-{(2S)-2-[(1R,2R)-3-{[(2S)-3-(4-aminophenyl)-1-methoxy-1-oxopropan-2-yl]amino}-1-methoxy-2-methyl-3-oxopropyl]pyrrolidin-1-yl}-3-methoxy-5-methyl-1-oxoheptan-4-yl]-N-methyl-L-valinamide”, the step yield (coupling step) was 56% and the “final HPLC purity” value [1] was 100%.
With “N-[(9H-fluoren-9-ylmethoxy)carbonyl]-2-methylalanyl-N-[(3R,4S,5S)-3-methoxy-1-{(2S)-2-[(1R,2R)-1-methoxy-3-{[(2S)-1-methoxy-1-oxo-3-phenylpropan-2-yl]amino}-2-methyl-3-oxopropyl]pyrrolidin-1-yl}-5-methyl-1-oxoheptan-4-yl]-N-methyl-L-valinamide” the step yield (coupling step, over two steps) was 88% over two steps.

Reference: patent US8828401B2 (Pfizer Inc., priority 2011, dated 2014)
